Laboratory results: article PMC3524939
Results are given in words; binding and its absence hold for the method and conditions named. In cells and extracts the contact can be indirect. These calls come from enrichment with a bait or labelling near it, and not all partners need be listed. For part of these data: Sequences can lack the tags named with a protein. Each block holds one molecule with its values, some of them ahead of it.

Protein sequences, listed by entry. Tags and fused reporters are not part of them.
UniProt Q9CQJ4: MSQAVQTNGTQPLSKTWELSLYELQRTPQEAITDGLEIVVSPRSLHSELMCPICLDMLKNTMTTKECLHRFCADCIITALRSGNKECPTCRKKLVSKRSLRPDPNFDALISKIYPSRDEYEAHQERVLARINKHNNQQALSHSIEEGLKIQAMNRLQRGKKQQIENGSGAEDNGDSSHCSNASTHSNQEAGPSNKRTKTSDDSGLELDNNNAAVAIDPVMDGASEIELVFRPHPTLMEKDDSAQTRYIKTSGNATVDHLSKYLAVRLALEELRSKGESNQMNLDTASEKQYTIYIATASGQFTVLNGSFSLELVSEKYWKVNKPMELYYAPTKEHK
UniProt A2AQH4: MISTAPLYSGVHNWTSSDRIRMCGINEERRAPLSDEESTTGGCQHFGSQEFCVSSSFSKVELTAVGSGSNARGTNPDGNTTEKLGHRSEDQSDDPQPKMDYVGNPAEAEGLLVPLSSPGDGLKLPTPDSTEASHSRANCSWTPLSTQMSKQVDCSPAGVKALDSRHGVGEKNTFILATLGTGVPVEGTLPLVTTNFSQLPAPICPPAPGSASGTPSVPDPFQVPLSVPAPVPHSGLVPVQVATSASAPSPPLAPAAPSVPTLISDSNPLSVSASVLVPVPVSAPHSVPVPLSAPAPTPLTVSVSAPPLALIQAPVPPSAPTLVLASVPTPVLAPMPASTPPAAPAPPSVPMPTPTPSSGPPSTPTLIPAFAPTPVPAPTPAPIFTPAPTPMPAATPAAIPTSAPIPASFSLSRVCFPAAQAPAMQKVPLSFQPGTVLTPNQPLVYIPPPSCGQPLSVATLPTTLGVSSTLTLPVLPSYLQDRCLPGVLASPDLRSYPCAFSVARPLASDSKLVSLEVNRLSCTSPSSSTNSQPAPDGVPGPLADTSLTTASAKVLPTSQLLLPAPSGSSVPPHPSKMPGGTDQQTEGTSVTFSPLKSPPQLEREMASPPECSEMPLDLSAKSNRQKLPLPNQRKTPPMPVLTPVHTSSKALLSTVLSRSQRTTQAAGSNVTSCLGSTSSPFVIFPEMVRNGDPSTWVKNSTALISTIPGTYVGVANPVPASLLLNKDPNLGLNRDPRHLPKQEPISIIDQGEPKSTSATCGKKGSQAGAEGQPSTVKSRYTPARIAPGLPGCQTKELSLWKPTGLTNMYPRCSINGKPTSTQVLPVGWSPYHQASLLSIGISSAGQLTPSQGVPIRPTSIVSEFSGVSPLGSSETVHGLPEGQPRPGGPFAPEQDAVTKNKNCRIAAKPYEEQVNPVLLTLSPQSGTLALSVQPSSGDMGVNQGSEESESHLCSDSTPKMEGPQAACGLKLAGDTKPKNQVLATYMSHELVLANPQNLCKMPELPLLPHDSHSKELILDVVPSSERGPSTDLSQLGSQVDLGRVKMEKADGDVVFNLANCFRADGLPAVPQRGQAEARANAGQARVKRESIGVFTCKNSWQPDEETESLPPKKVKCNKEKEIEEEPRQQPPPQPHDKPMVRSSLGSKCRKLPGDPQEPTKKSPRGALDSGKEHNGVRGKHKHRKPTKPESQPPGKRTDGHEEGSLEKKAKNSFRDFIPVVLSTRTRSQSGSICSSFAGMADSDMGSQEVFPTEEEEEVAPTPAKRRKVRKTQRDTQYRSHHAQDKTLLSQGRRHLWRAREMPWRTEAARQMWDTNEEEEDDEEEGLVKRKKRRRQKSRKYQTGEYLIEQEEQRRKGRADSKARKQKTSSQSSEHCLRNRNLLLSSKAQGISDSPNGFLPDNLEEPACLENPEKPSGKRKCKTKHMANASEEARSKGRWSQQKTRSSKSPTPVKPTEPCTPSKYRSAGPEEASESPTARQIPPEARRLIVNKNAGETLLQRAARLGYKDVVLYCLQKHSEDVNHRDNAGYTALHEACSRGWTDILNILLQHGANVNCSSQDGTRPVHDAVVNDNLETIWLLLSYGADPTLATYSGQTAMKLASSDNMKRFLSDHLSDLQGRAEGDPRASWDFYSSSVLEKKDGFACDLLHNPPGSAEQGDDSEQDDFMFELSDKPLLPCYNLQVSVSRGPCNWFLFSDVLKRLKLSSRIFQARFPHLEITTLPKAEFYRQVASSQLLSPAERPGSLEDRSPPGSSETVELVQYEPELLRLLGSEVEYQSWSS
UniProt Q8CGN4: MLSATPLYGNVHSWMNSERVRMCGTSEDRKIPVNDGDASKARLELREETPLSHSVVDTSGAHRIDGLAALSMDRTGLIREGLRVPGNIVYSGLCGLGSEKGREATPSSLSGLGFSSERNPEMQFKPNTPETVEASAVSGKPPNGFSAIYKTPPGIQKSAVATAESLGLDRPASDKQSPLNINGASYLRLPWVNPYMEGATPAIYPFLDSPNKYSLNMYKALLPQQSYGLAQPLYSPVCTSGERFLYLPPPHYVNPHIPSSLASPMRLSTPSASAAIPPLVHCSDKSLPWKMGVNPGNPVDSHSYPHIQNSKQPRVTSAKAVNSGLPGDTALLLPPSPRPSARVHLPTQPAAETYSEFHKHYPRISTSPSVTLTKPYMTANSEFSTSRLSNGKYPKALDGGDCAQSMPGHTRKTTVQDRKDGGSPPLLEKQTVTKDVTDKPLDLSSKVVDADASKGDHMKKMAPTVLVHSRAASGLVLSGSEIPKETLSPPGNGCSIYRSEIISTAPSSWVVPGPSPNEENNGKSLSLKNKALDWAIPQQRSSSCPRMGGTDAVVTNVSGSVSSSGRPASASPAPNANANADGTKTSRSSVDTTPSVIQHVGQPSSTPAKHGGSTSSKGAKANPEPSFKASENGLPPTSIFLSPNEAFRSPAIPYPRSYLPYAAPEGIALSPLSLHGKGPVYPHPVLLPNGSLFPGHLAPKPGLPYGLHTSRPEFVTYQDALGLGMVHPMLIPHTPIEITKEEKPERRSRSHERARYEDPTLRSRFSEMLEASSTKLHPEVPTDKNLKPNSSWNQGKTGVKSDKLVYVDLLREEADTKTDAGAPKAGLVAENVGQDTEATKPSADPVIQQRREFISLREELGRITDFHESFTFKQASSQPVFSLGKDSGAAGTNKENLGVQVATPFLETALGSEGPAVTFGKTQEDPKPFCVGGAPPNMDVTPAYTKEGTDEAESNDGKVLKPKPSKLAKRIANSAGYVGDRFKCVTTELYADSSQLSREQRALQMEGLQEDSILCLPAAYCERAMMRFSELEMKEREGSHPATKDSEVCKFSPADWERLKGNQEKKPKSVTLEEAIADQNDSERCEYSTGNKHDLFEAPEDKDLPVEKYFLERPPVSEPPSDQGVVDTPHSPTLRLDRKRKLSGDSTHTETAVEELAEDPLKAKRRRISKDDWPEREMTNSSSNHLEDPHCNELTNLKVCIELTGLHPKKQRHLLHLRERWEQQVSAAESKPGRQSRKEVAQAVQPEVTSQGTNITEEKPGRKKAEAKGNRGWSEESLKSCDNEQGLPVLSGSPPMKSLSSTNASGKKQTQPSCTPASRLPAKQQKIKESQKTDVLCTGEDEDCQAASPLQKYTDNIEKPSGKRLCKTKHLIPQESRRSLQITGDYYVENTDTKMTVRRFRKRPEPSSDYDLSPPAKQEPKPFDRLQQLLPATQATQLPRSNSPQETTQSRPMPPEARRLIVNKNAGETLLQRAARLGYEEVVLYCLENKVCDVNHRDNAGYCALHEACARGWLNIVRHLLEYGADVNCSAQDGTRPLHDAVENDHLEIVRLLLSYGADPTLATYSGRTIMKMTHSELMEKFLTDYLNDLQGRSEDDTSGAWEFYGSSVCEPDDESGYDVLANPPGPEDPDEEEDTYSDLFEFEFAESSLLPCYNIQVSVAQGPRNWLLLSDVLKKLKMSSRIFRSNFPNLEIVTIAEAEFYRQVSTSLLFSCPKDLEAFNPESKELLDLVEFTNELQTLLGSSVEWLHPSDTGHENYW
UniProt O35730: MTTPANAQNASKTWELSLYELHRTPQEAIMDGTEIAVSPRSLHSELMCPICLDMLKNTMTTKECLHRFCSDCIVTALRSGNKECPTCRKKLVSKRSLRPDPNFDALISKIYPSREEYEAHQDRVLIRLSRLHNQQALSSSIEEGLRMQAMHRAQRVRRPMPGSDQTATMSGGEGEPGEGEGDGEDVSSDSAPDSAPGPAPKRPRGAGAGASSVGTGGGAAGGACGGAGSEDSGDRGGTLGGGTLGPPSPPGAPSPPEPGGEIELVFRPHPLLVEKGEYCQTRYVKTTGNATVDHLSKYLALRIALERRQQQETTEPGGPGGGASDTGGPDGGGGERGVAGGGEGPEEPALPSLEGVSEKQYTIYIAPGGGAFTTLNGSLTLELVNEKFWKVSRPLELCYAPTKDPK

Key:
[1] = target: T1, Flag-2XStrepII-tagged KDM2B (human) (UniProt Q8NHM5); assay: affinity purification with mass spectrometry; Flag-2XStrepII-KDM2B captured on StrepTactin resin from mouse ESC nuclear extract (150 mM NaCl, 3 hr, 4°C), with and without benzonase; washes with 500 mM NaCl, 0.2% NP-40; eluted with desthiobiotin; LC-MS/MS; empty-vector line as control
T1 sequence: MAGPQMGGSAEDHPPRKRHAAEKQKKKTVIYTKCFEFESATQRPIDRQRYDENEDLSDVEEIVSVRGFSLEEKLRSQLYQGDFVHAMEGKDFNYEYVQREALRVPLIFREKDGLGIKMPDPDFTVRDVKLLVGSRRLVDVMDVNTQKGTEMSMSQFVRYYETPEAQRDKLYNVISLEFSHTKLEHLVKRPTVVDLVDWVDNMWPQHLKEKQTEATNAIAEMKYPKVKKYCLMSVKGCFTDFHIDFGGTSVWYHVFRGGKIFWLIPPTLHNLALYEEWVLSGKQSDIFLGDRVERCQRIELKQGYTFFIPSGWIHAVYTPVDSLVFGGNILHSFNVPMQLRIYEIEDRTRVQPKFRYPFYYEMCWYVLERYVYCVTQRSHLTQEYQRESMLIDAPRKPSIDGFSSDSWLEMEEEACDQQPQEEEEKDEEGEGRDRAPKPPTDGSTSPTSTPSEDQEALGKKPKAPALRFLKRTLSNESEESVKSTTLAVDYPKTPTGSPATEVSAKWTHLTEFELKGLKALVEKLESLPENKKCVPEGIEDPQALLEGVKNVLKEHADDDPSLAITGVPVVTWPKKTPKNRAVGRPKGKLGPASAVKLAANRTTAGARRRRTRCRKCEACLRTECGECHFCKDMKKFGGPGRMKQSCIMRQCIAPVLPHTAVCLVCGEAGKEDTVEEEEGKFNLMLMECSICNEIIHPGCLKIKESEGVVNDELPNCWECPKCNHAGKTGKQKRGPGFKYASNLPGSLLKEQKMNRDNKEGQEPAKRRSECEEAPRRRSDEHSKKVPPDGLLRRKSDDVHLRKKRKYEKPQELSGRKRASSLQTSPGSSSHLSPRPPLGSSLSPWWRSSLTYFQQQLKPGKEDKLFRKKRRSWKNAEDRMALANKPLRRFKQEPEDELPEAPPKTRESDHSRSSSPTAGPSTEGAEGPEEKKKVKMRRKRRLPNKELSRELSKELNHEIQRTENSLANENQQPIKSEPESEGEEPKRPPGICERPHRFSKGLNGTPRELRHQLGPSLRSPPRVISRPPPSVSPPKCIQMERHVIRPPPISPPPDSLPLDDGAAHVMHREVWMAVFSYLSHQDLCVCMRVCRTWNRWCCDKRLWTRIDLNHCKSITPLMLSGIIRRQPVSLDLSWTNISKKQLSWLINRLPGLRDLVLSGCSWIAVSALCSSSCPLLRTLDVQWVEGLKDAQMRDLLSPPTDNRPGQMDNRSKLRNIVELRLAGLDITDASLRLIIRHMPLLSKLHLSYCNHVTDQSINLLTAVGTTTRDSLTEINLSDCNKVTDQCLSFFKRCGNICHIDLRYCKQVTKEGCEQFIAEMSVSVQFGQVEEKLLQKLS

[2] = target: Flag-2XStrepII tagged PCGF1 (human) (UniProt Q9BSM1); assay: affinity purification with mass spectrometry; reciprocal purifications: Flag-2XStrepII tagged RING1B, YAF2, RYBP or PCGF1 captured on StrepTactin resin from mouse ESC nuclear extract, same setup as for KDM2B; LC-MS/MS
[3] = target: T2, Flag-2XStrepII tagged RYBP (mouse) (UniProt Q8CCI5); assay: as above
T2 sequence: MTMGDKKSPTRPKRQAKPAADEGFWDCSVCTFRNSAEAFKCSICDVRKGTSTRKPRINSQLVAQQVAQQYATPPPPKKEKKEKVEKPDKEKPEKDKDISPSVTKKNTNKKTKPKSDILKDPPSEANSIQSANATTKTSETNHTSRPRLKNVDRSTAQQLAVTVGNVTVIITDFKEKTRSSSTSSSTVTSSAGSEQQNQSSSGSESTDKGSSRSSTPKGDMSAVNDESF

[4] = target: T3, Flag-2XStrepII tagged YAF2 (mouse) (UniProt Q99LW6); assay: as above
T3 sequence: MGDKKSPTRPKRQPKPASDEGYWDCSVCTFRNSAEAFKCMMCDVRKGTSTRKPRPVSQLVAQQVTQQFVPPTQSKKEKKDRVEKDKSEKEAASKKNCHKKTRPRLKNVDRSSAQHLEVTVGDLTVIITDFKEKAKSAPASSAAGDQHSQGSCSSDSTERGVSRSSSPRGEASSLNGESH

[5] = target: Flag-2XStrepII tagged RING1B (mouse) (UniProt Q9CQJ4); assay: as above

Molecule: BCORL1 (from UniProt A2AQH4 1-1781)
binding [1]: binds | binding [2]: binds

Molecule: BCOR (from UniProt Q8CGN4 1-1759)
binding [1]: binds | binding [2]: binds

B3: RYBP (protein, UniProt Q8CCI5 1-228)
chain: T2 sequence
binding [1]: binds | binding [2]: binds

B4: PCGF1 (protein, UniProt Q8R023 1-259)
chain: MASPQGGQIAIAMRLRNQLQSVYKMDPLRNEEEVRVKIKDLNEHIVCCLCAGYFVDATTITECLHTFCKSCIVKYLQTSKYCPMCNIKIHETQPLLNLKLDRVMQDIVYKLVPGLQDSEEKRIREFYQSRGLDRVSQPSGEEPALSNLGLPFSSFDHSKAHYYRYDEQLSLCLERLSSGKDKNKNVLQNKYVRCSVRAEVRHLRRVLCHRLMLNPQHVQLLFDNEVLPDHMTMKQLWLSRWFGKPSPLLLQYSVKEKRR
binding [1]: binds

The next lines start with the values.

binding [1]: binds
Molecule: RING1B (from UniProt Q9CQJ4 1-336)

binding [2]: binds
Molecule: RING1A (from UniProt O35730 1-406)

binding [1]: binds | binding [2]: binds
B1: YAF2 (protein, UniProt Q99LW6 1-179)
chain: T3 sequence

binding [3]: binds | binding [2]: binds | binding [4]: binds | binding [5]: binds
B2: endogenous KDM2B (protein, UniProt Q6P1G2 1-1309)
chain: MEAEKDSGRRLRAIDRQRYDENEDLSDVEEIVSVRGFSLEEKLRSQLYQGDFVHAMEGKDFNYEYVQREALRVPLVFRDKDGLGIKMPDPDFTVRDVKLLVGSRRLVDVMDVNTQKGTEMSMSQFVRYYETPEAQRDKLYNVISLEFSHTKLEHLVKRPTVVDLVDWVDNMWPQHLKEKQTEATNALAEMKYPKVKKYCLMSVKGCFTDFHIDFGGTSVWYHVFRGGKIFWLIPPTLHNLALYEEWVLSGKQSDIFLGDRVERCQRIELKQGYTFFIPSGWIHAVYTPVDSLVFGGNILHSFNVPMQLRIYEIEDRTRVQPKFRYPFYYEMCWYVLERYVYCVTQRSYLTQEYQRELMLIDAPRKTSVDGFSSDSWLDMEEESCEQQPQEEEEEEEDKEEEGDGADKTPKPPTDDPTSPTSTPPEDQDSTGKKPKAPAIRFLKRTLSNESEESVKSTSMPTDDPKTPTGSPATEVSTKWTHLTEFELKGLKALVEKLESLPENKKCVPEGIEDPQALLEGVKNVLKEHVDDDPTLAITGVPVVSWPKKTAKNRVVGRPKGKLGPASAVKLAANRTTAGARRRRTRCRKCEACLRTECGECHFCKDMKKFGGPGRMKQSCIMRQCIAPVLPHTAVCLVCGEAGKEDTVEEEEGKFNLMLMECSICNEIIHPGCLKIKESEGVVNDELPNCWECPKCNHAGKTGKQKRGPGFKYASNLPGSLLKEQKMNRDNKEGQEPAKRRSECEEAPRRRSDEHPKKVPADGILRRKSDDVHLRRKRKYEKPQELSGRKRASSLQTSPGSSSHLSPRPPLGSSLSPWWRSSLTYFQQQLKPGKEDKLFRKKRRSWKNAEDRLSLANKPLRRFKQEPEDDLPEAPPKTRESDQSRSSSPTAGPSTEGAEGPEEKKKVKMRRKRRLVNKELSKELSKELNHEIQKTESTLAHESQQPIKSEPESENDEPKRPLSHCERPHRFSKGLNGTPRELRHSLGPGLRSPPRVMSRPPPSASPPKCIQMERHVIRPPPISPPPDSLPLDDGAAHVMHREVWMAVFSYLSHRDLCVCMRVCRTWNRWCCDKRLWTRIDLNRCKSITPLMLSGIIRRQPVSLDLSWTNISKKQLSWLINRLPGLRDLVLSGCSWIAVSALCSSSCPLLRTLDVQWVEGLKDAQMRDLLSPPTDNRPGQMDNRSKLRNIVELRLAGLDITDVSLRLIIRHMPLLSKLQLSYCNHINDQSINLLTAVGTTTRDSLTEVNLSDCNKVTDLCLSFFKRCGNICHIDLRYCKQVTKEGCEQFIAEMSVSVQFGQVEEKLLQKLS
